Measured values from PubChem BioAssay AID286 (DTP/NCI, 2004).
The list does not hold the whole screen: it is rich in T/C values a quarter to a half above the control, in often repeated tests (any T/C) and in doses without a T/C. Further doses and runs are listed elsewhere. T/C: endpoint of the treated group in % of that of the vehicle group. Some entries give survivors of the animals treated and no T/C: the source holds a T/C of zero for them, seemingly a mark for toxic or unscored doses. Some survivor counts are full or nearly so, which does not show that the dose was tolerated: the source hardly ever lists a survival T/C far under the control, and the zero likely stands for such cases as well. Counts of survivors are from the toxicity check (mostly the fifth day) where no day follows; animals may have died later. Schedules are NCI's codes, taken here to give the interval after Q, in days (D) or hours (H), and the number of doses after X. Some doses were run more than once; the results are listed from low to high. Where survival is the endpoint, the PubChem record calls one and a half times the control and up active, and a quarter to a half above the control has no call in these data; cut-offs in other NCI protocols can differ. Some T/C values carry the count of animals alive at the toxicity check (mostly the fifth day); without a count, all were alive then.

Tested on: BDF1 mice, M5076 sarcoma ip, median survival T/C
Test: NCI In Vivo Anticancer Drug Screen. Data for tumor model Sarcoma M5076 (intraperitoneal) in B6D2F1 (BDF1) mice
Details: T/C endpoint: median survival time, higher T/C = longer survival
Experimental: The antitumor activity of compounds was measured in mice bearing transplantable tumors. Survival or tumor size were measured and the results are expressed as the measurement made in the treated group (T) divided by the measurement made in the vehicle treated control group (C). The tumor model used in this assay is Sarcoma M5076 (intraperitoneal) in B6D2F1 (BDF1) mice

[1] = dose: 200.0 mg/kg/injection, schedule: Q04DX004 (ip), vehicle: Klucel (hydroxypropylcellulose) (HPC)
[2] = dose: 12.0 mg/kg/injection, schedule: Q04DX005 (ip), vehicle: Klucel (hydroxypropylcellulose) (HPC)
[3] = dose: 100.0 mg/kg/injection, schedule: Q04DX004 (ip), vehicle: water
[4] = dose: 200.0 mg/kg/injection, schedule: Q04DX004 (ip), vehicle: water

COc1ccc(C(N)=O)cc1N=NN(C)C
T/C (dose: 12.5 mg/kg/injection, schedule: Q04DX004 (ip), vehicle: Klucel (hydroxypropylcellulose) (HPC)): 126 % of control | T/C (dose: 25.0 mg/kg/injection, schedule: Q04DX004 (ip), vehicle: Klucel (hydroxypropylcellulose) (HPC)): 130 % of control | T/C (dose: 50.0 mg/kg/injection, schedule: Q04DX004 (ip), vehicle: Klucel (hydroxypropylcellulose) (HPC)): 140 % of control | T/C (dose: 100.0 mg/kg/injection, schedule: Q04DX004 (ip), vehicle: Klucel (hydroxypropylcellulose) (HPC)): 146 % of control [9 of 10 alive on day 14] | survivor count [1]: 0 of 10 on day 14

Nc1nc(=S)c2[nH]cnc2[nH]1
T/C (dose: 1.0 mg/kg/injection, schedule: Q04DX005 (ip), vehicle: alkali diluted with saline): 141 % of control | T/C (dose: 1.5 mg/kg/injection, schedule: Q04DX004 (ip), vehicle: Klucel (hydroxypropylcellulose) (HPC)): 108, 120, 121, 129 % of control | T/C (dose: 1.5 mg/kg/injection, schedule: Q04DX005 (ip), vehicle: Klucel (hydroxypropylcellulose) (HPC)): 109, 119, 126, 132 % of control | T/C (dose: 1.5 mg/kg/injection, schedule: Q04DX005 (ip), vehicle: alkali diluted with saline): 132 % of control | T/C (dose: 3.0 mg/kg/injection, schedule: Q04DX004 (ip), vehicle: Klucel (hydroxypropylcellulose) (HPC)): 100, 116, 123, 129 % of control | T/C (dose: 3.0 mg/kg/injection, schedule: Q04DX005 (ip), vehicle: Klucel (hydroxypropylcellulose) (HPC)): 118, 125, 132, 149 % of control | T/C (dose: 3.0 mg/kg/injection, schedule: Q04DX005 (ip), vehicle: alkali diluted with saline): 143 % of control | T/C (dose: 4.0 mg/kg/injection, schedule: Q04DX005 (ip), vehicle: alkali diluted with saline): 127 % of control | T/C (dose: 6.0 mg/kg/injection, schedule: Q04DX004 (ip), vehicle: Klucel (hydroxypropylcellulose) (HPC)): 124 [8 of 9 alive on day 9], 127, 131, 138 % of control | T/C (dose: 6.0 mg/kg/injection, schedule: Q04DX005 (ip), vehicle: Klucel (hydroxypropylcellulose) (HPC)): 101, 127, 142, 156 % of control | survivor count (dose: 8.0 mg/kg/injection, schedule: Q04DX005 (ip), vehicle: alkali diluted with saline): 10 of 10 | T/C (dose: 12.0 mg/kg/injection, schedule: Q04DX004 (ip), vehicle: Klucel (hydroxypropylcellulose) (HPC)): 119, 138, 141, 144 % of control | T/C [2]: 95 and 144 % of control | survivor count [2]: 10 of 10 on day 9 | survivor count (dose: 12.0 mg/kg/injection, schedule: Q04DX005 (ip), vehicle: alkali diluted with saline): 1 of 8 on day 17

O=C1N[C@H]2[C@H](O)[C@H](O)[C@@H](O)[C@H](O)[C@@H]2c2cc3c(c(O)c21)OCO3
T/C (dose: 0.75 mg/kg/injection, schedule: Q01DX009 (ip), vehicle: saline + alcohol): 143 % of control | survivor count (dose: 6.0 mg/kg/injection, schedule: Q01DX009 (ip), vehicle: saline + alcohol): 0 of 10 on day 9 and 6 of 10 on day 9 | survivor count (dose: 12.0 mg/kg/injection, schedule: Q01DX009 (ip), vehicle: saline + alcohol): 0 of 10 on day 9

CC[N+](CC)(CC)CC
T/C (dose: 3.89 mg/kg/injection, schedule: Q04DX005 (ip), vehicle: saline with Tween-80): 134 % of control | T/C (dose: 6.48 mg/kg/injection, schedule: Q04DX005 (ip), vehicle: saline with Tween-80): 128 % of control | survivor count (dose: 18.0 mg/kg/injection, schedule: Q04DX005 (ip), vehicle: saline with Tween-80): 5 of 10 on day 17 | survivor count (dose: 30.0 mg/kg/injection, schedule: Q04DX005 (ip), vehicle: saline with Tween-80): 2 of 10 on day 17

C=C1C(=O)OC2C1C(OC(=O)/C(C)=C\C)CC(C)=C1C(=O)C3OC3(C)C12O (centres undefined)
T/C (dose: 10.0 mg/kg/injection, schedule: Q01DX009 (ip), vehicle: saline + alcohol): 125 and 126 % of control [9 of 10 alive on day 9] | survivor count (dose: 20.0 mg/kg/injection, schedule: Q01DX009 (ip), vehicle: saline + alcohol): 6 of 10 on day 9 | survivor count (dose: 40.0 mg/kg/injection, schedule: Q01DX009 (ip), vehicle: saline + alcohol): 0 of 10 on day 9 | survivor count (dose: 80.0 mg/kg/injection, schedule: Q01DX009 (ip), vehicle: saline + alcohol): 0 of 10 on day 9

O=C1C2C3C=CC(C2C(=O)N1CO)C1C2C(=O)N(CO)C(=O)C2C31 (centres undefined)
survivor count [3]: 5 of 9 on day 14 | survivor count [4]: 0 of 10 on day 14

COC1CC2C=C(C)/C=C/C=C/C(=O)NC(c3ccccc3)C/C=C/CCC(O)CC(=O)C2=C1O (centres undefined)
T/C (dose: 3.12 mg/kg/injection, schedule: Q01DX009 (ip), vehicle: Klucel (hydroxypropylcellulose) (HPC)): 143 % of control | T/C (dose: 3.13 mg/kg/injection, schedule: Q01DX009 (ip), vehicle: saline with Tween-80): 130 % of control | T/C (dose: 6.25 mg/kg/injection, schedule: Q01DX009 (ip), vehicle: Klucel (hydroxypropylcellulose) (HPC)): 144 % of control [9 of 10 alive on day 9] | T/C (dose: 6.25 mg/kg/injection, schedule: Q01DX009 (ip), vehicle: saline with Tween-80): 131 % of control | survivor count (dose: 12.5 mg/kg/injection, schedule: Q01DX009 (ip), vehicle: Klucel (hydroxypropylcellulose) (HPC)): 3 of 10 on day 9 | survivor count (dose: 12.5 mg/kg/injection, schedule: Q01DX009 (ip), vehicle: saline with Tween-80): 8 of 10 on day 9 | survivor count (dose: 25.0 mg/kg/injection, schedule: Q01DX009 (ip), vehicle: Klucel (hydroxypropylcellulose) (HPC)): 0 of 10 on day 9 | survivor count (dose: 25.0 mg/kg/injection, schedule: Q01DX009 (ip), vehicle: saline with Tween-80): 1 of 10 on day 9 | survivor count (dose: 50.0 mg/kg/injection, schedule: Q01DX009 (ip), vehicle: saline with Tween-80): 0 of 10 on day 9

COc1cc(NCc2ccc3nc(N)nc(N)c3c2C)cc(OC)c1OC (tested in a mixture with another compound)
T/C (dose: 20.0 mg/kg/injection, schedule: Q04DX005 (ip), vehicle: water): 127 % of control | T/C (dose: 80.0 mg/kg/injection, schedule: Q04DX005 (ip), vehicle: water): 145 % of control [9 of 10 alive on day 9] | T/C (dose: 160.0 mg/kg/injection, schedule: Q04DX005 (ip), vehicle: water): 142 % of control

O=C(NC(Cc1ccc(I)cc1)C(=O)O)c1cccc(Br)c1 (centres undefined)
survivor count (dose: 800.0 mg/kg/injection, schedule: Q04DX004 (ip), vehicle: Klucel (hydroxypropylcellulose) (HPC)): 2 of 10 on day 14

CC1(C)N=C(N)N=C(N)N1c1ccc(CCCCc2ccc(S(=O)(=O)F)cc2Cl)c(Cl)c1
survivor count (dose: 90.0 mg/kg/injection, schedule: Q01DX009 (ip), vehicle: saline with Tween-80): 10 of 10

CCC(O)CC1OC2(CCC1C)CC1OC(=O)/C=C\C(C)(O)C(O)C(C)C(O)C(OC3CC(OC)C(O)C(C)O3)C(O)C(C)(O)CCC/C=C/C3CC(C)COC3(O)CC(O2)C1C (centres undefined)
survivor count (dose: 4.0 mg/kg/injection, schedule: Q01DX009 (ip), vehicle: saline + alcohol): 0 of 10 on day 9

CCC1(O)CC2CN(CCc3c([nH]c4ccccc34)C(C(=O)OC)(c3cc4c(cc3OC)N(C)C3C(O)(C(N)=O)C(O)C5(CC)C=CCN6CCC43C65)C2)C1 (centres undefined) (tested in a mixture with another compound)
T/C (dose: 0.25 mg/kg/injection, schedule: Q04DX005 (ip), vehicle: saline): 128 % of control | T/C (dose: 2.0 mg/kg/injection, schedule: Q04DX005 (ip), vehicle: saline): 140 % of control [7 of 8 alive on day 17] | survivor count (dose: 4.0 mg/kg/injection, schedule: Q04DX005 (ip), vehicle: saline): 0 of 8 on day 17

N#CC(C#N)=NNc1ccc2cn[nH]c2c1
survivor count [1]: 6 of 10 on day 14

CC1=C[P+](c2ccccc2)(c2ccccc2)C=C(c2ccccc2)O1
T/C (dose: 10.0 mg/kg/injection, schedule: Q04DX004 (ip), vehicle: saline + alcohol): 125 % of control | survivor count (dose: 20.0 mg/kg/injection, schedule: Q04DX004 (ip), vehicle: saline + alcohol): 1 of 10 on day 14

COc1cccc2c1C(=O)c1c(O)c3c(c(O)c1C2=O)C[C@](O)(C(=O)CO)CC3OC1CC(N)C(OC2CCCCO2)C(C)O1 (some centres undefined)
survivor count (dose: 12.5 mg/kg/injection, schedule: Q04DX004 (ip), vehicle: water): 5 of 10 on day 14 | survivor count (dose: 25.0 mg/kg/injection, schedule: Q04DX004 (ip), vehicle: water): 0 of 10 on day 14 | survivor count (dose: 50.0 mg/kg/injection, schedule: Q04DX004 (ip), vehicle: water): 0 of 10 on day 14 | survivor count [3]: 0 of 10 on day 14 | survivor count [4]: 0 of 10 on day 14
